In article PMC10166522:
No constants are given. Whether binding was seen depends on the method and setting. Binding seen in cells or lysates may run through a third protein. Binding can be weak; no strength is given.

Protein sequences, listed by entry. Tags and fused reporters are not part of them. Lines headed by an entry give the natural chain unless they say otherwise; changes in a name come on top.
UniProt P34298: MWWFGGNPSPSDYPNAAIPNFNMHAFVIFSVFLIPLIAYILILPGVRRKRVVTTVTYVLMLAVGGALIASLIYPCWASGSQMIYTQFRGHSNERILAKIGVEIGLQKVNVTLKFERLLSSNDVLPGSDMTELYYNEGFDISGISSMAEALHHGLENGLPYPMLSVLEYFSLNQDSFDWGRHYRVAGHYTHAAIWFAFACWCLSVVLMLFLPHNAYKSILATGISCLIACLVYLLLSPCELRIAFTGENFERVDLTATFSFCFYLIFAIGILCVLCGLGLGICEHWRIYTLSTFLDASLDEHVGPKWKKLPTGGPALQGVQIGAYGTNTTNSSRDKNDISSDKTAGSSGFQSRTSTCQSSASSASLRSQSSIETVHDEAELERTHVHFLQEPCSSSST
UniProt Q8WQ99: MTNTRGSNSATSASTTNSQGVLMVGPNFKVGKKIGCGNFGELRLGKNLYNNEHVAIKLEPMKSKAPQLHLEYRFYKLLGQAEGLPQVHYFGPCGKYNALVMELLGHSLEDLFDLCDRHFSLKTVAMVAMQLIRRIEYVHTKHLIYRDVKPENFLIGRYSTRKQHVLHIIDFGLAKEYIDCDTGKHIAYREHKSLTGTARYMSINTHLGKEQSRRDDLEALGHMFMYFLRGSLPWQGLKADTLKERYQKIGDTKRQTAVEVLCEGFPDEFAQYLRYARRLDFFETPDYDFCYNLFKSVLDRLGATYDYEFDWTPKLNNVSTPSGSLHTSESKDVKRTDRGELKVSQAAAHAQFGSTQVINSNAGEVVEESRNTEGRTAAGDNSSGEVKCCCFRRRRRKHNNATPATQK

Molecular target: His::TF::DOXA-1 fusion protein (C. elegans) (UniProt P34298)
Test: pull-down; His::TF fusion protein from BL21 held on His-tag resin, incubated at 4°C overnight with the lysate supernatant of transfected HEK293T cells, 3 washes in TBST; Western blot; only the target purified

Substance: FLAG::CSNK-1 fusion protein (from UniProt Q8WQ99 1-407) (enzyme)
- binding: binds
